No constants are given. Whether binding was seen depends on the method and setting. Some results given as binding are weak or reduced against the parent protein; the word gives no strength. Each block holds one binder with its values, some of them ahead of it.
Legend:
[1] = molecular target: purified recombinant human TERT reverse transcriptase domain (human) (UniProt O14746); assay: Western blot of purified hTERT-RT (100 ng) with hybridoma supernatant
[2] = molecular target: flag-tagged hTERT protein from transfected 293T cells (human) (UniProt O14746); assay: immunoprecipitation from 293T lysate, Western blot with peptide polyclonal antibody
[3] = molecular target: catalytic subunit of human telomerase (hTERT) (human) (UniProt O14746); assay: Western blot
[4] = molecular target: catalytic subunit of human telomerase (hTERT) (human) (UniProt O14746); assay: Western blot and immunoprecipitation (summary)
[5] = molecular target: purified recombinant human TERT reverse transcriptase domain (human) (UniProt O14746); assay: Western blot, 0.2 µg/ml antibody, ECL exposure 1 hour

By UniProt entry, the sequences of proteins in these tests, tags left out.
UniProt O14746: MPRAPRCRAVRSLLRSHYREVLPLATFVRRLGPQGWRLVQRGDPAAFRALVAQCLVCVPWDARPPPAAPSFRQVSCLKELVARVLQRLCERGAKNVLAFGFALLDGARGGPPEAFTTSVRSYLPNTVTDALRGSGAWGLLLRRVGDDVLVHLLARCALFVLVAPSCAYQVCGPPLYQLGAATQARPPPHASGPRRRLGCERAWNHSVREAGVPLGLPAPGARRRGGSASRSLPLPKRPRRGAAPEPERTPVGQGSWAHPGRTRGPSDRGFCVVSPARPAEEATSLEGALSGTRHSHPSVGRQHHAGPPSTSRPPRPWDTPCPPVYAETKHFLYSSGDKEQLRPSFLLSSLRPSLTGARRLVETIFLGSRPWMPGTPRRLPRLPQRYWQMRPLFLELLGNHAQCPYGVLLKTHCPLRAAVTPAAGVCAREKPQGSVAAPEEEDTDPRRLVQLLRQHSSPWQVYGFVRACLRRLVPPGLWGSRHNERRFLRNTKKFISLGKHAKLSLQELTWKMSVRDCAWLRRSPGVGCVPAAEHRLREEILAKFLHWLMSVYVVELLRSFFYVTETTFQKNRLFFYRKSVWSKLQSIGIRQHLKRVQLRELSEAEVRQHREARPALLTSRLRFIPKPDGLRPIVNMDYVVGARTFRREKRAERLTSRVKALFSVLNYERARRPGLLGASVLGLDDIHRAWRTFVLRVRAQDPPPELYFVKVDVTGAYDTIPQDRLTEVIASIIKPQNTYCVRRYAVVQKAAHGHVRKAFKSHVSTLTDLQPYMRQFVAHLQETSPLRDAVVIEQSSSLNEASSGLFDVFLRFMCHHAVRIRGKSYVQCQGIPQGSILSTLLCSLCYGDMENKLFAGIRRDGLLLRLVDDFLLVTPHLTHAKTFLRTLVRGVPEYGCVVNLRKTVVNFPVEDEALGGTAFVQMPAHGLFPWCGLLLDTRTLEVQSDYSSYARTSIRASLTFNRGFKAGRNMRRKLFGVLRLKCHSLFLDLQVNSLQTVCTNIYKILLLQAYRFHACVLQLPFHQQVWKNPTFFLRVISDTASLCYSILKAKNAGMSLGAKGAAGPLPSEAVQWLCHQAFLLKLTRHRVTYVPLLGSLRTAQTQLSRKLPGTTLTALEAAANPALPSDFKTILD

- binding [1]: binds
- binding [2]: binds
- binding [3]: binds
- binding [4]: binds
- binding [5]: binds
B1: 4B5 monoclonal antibody (hybridoma 4B5, ATCC PTA-2411) (antibody, V domains shown)
VH: EVKLVESGGGLVKPGGSLKLSCAASGFTFSSYAMSWVRQTPEKRLEWVASISSGGNTYYPDNVQGRFTISRDNARNILYLQMSSLRSEDTAMFYCAREGVYDTYGGVDYWGQGTTLTVSS
VL: DIVLTQSPTSLAVSLGQRATISCKASQSVDYDGDSFINWYQQTPGQPPKLLIYAASNLASGIPARFSGSGSGTDFTLNIHPVEEEDAATYYCQQSNEAPPTFGGGTKLEI

- binding [1]: binds
- binding [3]: binds
- binding [4]: binds
- binding [5]: binds
B2: 4A5 monoclonal antibody (hybridoma 4A5, ATCC PTA-2412) (antibody, V domains shown)
VH: B1 VH
VL: B1 VL
notes: Mouse monoclonal from hybridoma, characterized as IgG2B type, kappa light chain primers used; also called 4A5 mAb; 45A

Source: patent US7078491 (Amgen, dated 2006)
